The source of these data is article PMC5731862.

Protein sequences, listed by entry. Tags and fused reporters are not part of them. Residues count along the entry.
UniProt O54967: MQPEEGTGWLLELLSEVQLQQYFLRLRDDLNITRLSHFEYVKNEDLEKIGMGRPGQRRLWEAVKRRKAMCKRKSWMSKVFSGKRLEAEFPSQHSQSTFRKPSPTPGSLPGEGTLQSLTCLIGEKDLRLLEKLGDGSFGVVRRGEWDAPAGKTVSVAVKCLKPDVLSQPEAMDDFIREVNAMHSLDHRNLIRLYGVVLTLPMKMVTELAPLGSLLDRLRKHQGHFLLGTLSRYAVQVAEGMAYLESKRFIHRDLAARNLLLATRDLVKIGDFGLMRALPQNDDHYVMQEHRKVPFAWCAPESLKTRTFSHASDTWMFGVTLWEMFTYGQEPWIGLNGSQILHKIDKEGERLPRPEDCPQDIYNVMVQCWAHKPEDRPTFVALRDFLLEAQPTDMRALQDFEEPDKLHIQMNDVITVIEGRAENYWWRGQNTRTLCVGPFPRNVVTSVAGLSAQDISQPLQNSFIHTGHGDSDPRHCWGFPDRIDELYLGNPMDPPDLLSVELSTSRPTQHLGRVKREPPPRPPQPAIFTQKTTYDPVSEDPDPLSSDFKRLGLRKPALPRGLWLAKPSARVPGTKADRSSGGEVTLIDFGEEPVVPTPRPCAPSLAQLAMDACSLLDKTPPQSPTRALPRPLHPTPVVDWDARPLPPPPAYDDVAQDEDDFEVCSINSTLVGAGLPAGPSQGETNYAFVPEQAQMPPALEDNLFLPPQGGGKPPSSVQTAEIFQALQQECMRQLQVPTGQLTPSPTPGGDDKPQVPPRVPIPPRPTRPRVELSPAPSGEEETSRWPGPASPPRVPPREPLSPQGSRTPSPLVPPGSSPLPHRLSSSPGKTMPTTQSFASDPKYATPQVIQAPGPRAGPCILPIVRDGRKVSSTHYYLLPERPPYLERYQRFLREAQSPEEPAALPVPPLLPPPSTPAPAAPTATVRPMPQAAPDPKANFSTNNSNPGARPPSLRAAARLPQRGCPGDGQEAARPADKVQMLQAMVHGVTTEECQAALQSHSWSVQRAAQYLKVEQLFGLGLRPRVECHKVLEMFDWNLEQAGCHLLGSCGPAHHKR
UniProt P27546: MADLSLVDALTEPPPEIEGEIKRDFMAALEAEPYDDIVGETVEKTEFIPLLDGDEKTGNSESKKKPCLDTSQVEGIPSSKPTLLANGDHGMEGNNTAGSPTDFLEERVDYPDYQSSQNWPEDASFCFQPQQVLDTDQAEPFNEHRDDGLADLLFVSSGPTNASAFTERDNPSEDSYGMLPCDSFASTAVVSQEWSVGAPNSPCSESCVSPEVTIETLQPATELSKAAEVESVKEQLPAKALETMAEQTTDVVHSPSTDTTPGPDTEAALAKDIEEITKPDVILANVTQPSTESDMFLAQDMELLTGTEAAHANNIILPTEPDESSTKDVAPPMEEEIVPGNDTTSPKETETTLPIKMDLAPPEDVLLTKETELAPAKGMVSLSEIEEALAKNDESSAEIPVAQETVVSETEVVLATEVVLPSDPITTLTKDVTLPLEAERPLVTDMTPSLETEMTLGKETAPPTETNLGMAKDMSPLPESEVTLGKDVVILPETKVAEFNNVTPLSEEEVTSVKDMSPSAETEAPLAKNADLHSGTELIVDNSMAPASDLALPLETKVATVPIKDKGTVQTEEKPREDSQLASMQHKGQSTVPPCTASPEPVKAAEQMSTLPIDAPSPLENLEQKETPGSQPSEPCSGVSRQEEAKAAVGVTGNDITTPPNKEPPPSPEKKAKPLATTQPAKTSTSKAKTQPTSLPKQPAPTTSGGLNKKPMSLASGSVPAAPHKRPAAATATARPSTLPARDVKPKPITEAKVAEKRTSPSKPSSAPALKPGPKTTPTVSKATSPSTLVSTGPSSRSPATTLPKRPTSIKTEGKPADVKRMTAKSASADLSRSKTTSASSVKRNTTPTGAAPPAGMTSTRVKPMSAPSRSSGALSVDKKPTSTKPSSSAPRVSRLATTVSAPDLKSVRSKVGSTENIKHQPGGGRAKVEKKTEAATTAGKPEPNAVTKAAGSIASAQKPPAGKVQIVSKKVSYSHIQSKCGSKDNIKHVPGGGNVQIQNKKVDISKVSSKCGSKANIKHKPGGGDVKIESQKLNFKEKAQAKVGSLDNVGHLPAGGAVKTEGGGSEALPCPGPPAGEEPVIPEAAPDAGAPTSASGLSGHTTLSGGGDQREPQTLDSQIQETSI
UniProt P13595, residues 20-1115: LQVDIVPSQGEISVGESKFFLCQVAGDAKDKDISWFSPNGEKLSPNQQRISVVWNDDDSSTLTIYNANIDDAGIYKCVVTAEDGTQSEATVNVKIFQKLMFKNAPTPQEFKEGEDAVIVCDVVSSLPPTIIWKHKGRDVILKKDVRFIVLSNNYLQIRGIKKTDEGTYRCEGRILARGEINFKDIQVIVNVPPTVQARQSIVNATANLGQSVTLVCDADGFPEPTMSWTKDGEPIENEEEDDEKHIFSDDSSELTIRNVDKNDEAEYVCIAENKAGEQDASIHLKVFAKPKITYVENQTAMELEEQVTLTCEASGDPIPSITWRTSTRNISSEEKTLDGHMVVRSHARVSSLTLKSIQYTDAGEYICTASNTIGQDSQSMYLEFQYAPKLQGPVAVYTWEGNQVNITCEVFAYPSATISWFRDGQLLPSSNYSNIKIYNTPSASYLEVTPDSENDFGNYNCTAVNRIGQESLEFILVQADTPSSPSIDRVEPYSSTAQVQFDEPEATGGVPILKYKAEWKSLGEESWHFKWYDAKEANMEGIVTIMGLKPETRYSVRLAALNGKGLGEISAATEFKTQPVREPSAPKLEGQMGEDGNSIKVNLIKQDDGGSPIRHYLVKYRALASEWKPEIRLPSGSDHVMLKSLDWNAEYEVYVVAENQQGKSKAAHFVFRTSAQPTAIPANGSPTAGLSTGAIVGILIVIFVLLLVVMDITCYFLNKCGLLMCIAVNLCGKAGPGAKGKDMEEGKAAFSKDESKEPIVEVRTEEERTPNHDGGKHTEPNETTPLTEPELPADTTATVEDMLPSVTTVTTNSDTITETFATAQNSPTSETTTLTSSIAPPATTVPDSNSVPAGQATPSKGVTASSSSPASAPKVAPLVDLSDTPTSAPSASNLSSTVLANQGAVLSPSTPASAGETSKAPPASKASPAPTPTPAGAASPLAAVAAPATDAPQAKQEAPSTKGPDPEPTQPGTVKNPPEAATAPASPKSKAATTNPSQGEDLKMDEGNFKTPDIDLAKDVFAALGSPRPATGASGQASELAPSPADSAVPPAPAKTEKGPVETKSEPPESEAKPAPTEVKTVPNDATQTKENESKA
UniProt Q6R891: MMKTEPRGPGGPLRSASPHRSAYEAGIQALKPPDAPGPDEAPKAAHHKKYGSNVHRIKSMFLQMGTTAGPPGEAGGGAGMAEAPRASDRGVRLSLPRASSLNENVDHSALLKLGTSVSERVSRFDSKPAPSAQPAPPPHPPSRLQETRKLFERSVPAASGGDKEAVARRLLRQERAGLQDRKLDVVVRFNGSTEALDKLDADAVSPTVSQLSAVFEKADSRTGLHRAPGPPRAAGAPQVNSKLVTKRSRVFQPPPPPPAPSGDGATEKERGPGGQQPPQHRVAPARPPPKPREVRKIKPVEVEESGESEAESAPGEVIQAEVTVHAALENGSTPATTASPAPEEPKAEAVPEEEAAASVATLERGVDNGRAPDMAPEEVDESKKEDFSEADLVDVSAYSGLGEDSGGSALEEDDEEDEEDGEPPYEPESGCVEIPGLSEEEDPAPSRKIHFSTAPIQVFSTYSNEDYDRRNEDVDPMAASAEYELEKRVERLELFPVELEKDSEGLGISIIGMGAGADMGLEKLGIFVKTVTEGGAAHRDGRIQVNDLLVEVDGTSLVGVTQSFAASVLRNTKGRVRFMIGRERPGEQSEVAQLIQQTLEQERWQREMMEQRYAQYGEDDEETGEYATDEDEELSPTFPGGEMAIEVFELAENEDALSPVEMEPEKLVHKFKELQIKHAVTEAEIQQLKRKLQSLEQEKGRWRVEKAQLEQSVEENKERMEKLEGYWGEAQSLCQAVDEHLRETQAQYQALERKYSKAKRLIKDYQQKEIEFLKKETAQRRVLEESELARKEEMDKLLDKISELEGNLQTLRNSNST
UniProt P11798: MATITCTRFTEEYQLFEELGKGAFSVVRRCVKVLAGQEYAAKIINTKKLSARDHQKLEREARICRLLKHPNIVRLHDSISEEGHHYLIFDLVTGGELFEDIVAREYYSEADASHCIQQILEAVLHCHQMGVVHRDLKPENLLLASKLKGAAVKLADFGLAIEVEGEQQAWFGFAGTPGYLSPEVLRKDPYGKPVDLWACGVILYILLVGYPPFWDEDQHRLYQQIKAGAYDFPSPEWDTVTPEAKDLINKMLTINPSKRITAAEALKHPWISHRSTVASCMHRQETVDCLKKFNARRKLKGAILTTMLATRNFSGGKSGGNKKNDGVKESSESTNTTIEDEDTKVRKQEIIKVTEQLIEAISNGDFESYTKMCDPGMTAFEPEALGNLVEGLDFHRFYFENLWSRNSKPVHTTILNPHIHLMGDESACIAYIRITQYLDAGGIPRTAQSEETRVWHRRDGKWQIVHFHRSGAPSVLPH

The target in assay [1] is Ack1 (activated Cdc42-associated tyrosine kinase) (mouse (endogenous in brain)) (UniProt O54967). Nature of the assay: affinity purification with mass spectrometry; Ack1 immunoprecipitated from adult and P5 mouse brain homogenates (1% Triton X-100, 150 mM NaCl, HEPES pH 7.5) with a 1:1 mix of monoclonal and polyclonal Ack1 antibodies overnight at 4°C, protein G-sepharose; SDS-PAGE, band of about 100 to 130 KDa cut, trypsin, LC-MS/MS (first assays also MALDI-TOF).

The target is the same in assay [2]. Described as above. The source holds these as a separate data set.

Like-named read-outs stand apart in the source and are kept apart here. Results are given in words; binding and its absence hold for the method and conditions named. Binding seen in cells or lysates may run through a third protein. A yes stands for co-enrichment or nearness to the bait. Other partners may have been found.

With “microtubule-associated protein MAP 4 (from UniProt P27546 1-1125)”, in assay [1], the binding entry is recorded as “binds”.

Take NCAM 1 (from UniProt P13595 20-1115): in assay [1], the binding result is listed as “binds”.

As to Neurabin-2 (from UniProt Q6R891 1-817), the binding entry in assay [1] is reported as “binds”.

Take “microtubule-associated protein MAP 6 (from UniProt Q7TSJ2 1-906)”: the binding result in assay [1] was “binds”.

Consider SynGAP (from UniProt F6SEU4 1-1340), for which, in assay [1], the binding entry is given as “binds”.

As for “CAMKII-α (Calmodulin kinase II) (from UniProt P11798 1-478) (enzyme)”, the binding entry in assay [1] was “binds”.

B1: SH3-containing grb2-like protein 3-interacting protein 1 (protein, UniProt Q8VD37 1-806)
chain: MMEGLKKRTRKAFGIRKKEKDTDSTGSPDRDGMQPSPHEPPYHSKAECAREGGKKASKKSNGAPNGFYAEIDWERYNSPELDEEGYSIRPEEPGSTKGKHFYSSSESEEEEESHKKFNIKIKPLQSKDVLKNAATVDELKASIGNIALSPSPVRKSPRRSPGAIKRNLSSEEVARPRRSTPTPELTSKKPLDDTLALAPLFGPPLESAFDEQKTEVLLDQPEIWGSGQPMNPSTESPELARPFPTGTPPPLPPKTVPATPPRTGSPLTVATGNDQAATEAKIEKLPSISDLDSIFGPVLSPKSVAVNTEEKWVHFSDASPEHVTPELTPREQVVTPPAASDIPADSPAPAPPGPTGSAGPPGPPGPRHVPSPLNLEEVQKKVAEQTFIKDDYLETLSSPKECGLGQRATPPPPPPPTYRTVVSSPGPGSGSGTGTTSGASSPARPATPLVPCSTTPPPPPPRPPSRPKLPPGKPGVGDVSRPFSPPIHSSSPPPIAPLARAESTSSISSTNSLSAATTPTVGSSRGPSPLTMGAQDTLPVAAAFTETVNAYFKGADPSKCIVKITGEMVLSFPAGITRHFANNPSPAALTFRVVNSSRLEHVLPNPQLLCCDNTQNDANTKEFWVNMPNLMTHLKKVSEQKPQATYYNVDMLKYQVSAQGIQSTPLNLAVNWRCEPASTDLRIDYKYNTDAMSTAVALNNVQFLVPIDGGVTKLQAVLPPAVWNAEQQRILWKIPDISQKSENGGVGSLLARFQLSEGPSKPSPLVVQFTSEGSTLSGCDIELVGAGYRFSLIKKRFAAGKYLADN
Take B1: the binding entry in assay [2] is listed as “binds”.

B2: peroxiredoxin 2 (enzyme, UniProt Q61171 1-198)
chain: MASGNAQIGKSAPDFTATAVVDGAFKEIKLSDYRGKYVVLFFYPLDFTFVCPTEIIAFSDHAEDFRKLGCEVLGVSVDSQFTHLAWINTPRKEGGLGPLNIPLLADVTKSLSQNYGVLKNDEGIAYRGLFIIDAKGVLRQITVNDLPVGRSVDEALRLVQAFQYTDEHGEVCPAGWKPGSDTIKPNVDDSKEYFSKHN
B2: in assay [2], the binding result is listed as “binds”.

B3: precursor of dihydrolipoamide S-acetyltransferase (enzyme, UniProt Q8BMF4 86-642)
chain: SLPPHQKVPLPSLSPTMQAGTIARWEKKEGEKISEGDLIAEVETDKATVGFESLEECYMAKILVPEGTRDVPVGSIICITVEKPQDIEAFKNYTLDLAAAAAPQAAPAAAPAPAAAPAAPSASAPGSSYPTHMQIVLPALSPTMTMGTVQRWEKKVGEKLSEGDLLAEIETDKATIGFEVQEEGYLAKILVPEGTRDVPLGAPLCIIVEKQEDIAAFADYRPTEVTSLKPQAAPPAPPPVAAVPPTPQPVAPTPSAAPAGPKGRVFVSPLAKKLAAEKGIDLTQVKGTGPEGRIIKKDIDSFVPSKAAPAAAAAMAPPGPRVAPAPAGVFTDIPISNIRRVIAQRLMQSKQTIPHYYLSVDVNMGEVLLVRKELNKMLEGKGKISVNDFIIKASALACLKVPEANSSWMDTVIRQNHVVDVSVAVSTPAGLITPIVFNAHIKGLETIASDVVSLASKAREGKLQPHEFQGGTFTISNLGMFGIKNFSAIINPPQACILAIGASEDKLIPADNEKGFDVASVMSVTLSCDHRVVDGAVGAQWLAEFKKYLEKPITMLL
As to B3, the binding result in assay [2] was “binds”.

B4: peroxiredoxin 1 (enzyme, UniProt P35700 1-199)
chain: MSSGNAKIGYPAPNFKATAVMPDGQFKDISLSEYKGKYVVFFFYPLDFTFVCPTEIIAFSDRADEFKKLNCQVIGASVDSHFCHLAWINTPKKQGGLGPMNIPLISDPKRTIAQDYGVLKADEGISFRGLFIIDDKGILRQITINDLPVGRSVDEIIRLVQAFQFTDKHGEVCPAGWKPGSDTIKPDVNKSKEYFSKQK
Consider B4, for which the binding result in assay [2] was “binds”.

B5: neurofilament medium polypeptide (protein, UniProt P08553 1-848)
chain: MSYTLDSLGNPSAYRRVTETRSSFSRVSGSPSSGFRSQSWSRGSPSTVSSSYKRSALAPRLAYSSAMLSSAESSLDFSQSSSLLNGGSGGDYKLSRSNEKEQLQGLNDRFAGYIEKVHYLEQQNKEIEAEIQALRQKQASHAQLGDAYDQEIRELRATLEMVNHEKAQVQLDSDHLEEDIHRLKERFEEEARLRDDTEAAIRALRKDIEESSMVKVELDKKVQSLQDEVAFLRSNHEEEVADLLAQIQASHITVERKDYLKTDISTALKEIRSQLECHSDQNMHQAEEWFKCRYAKLTEAAEQNKEAIRSAKEEIAEYRRQLQSKSIELESVRGTKESLERQLSDIEERHNHDLSSYQDTIQQLENELRGTKWEMARHLREYQDLLNVKMALDIEIAAYRKLLEGEETRFSTFSGSITGPLYTHRQPSVTISSKIQKTKVEAPKLKVQHKFVEEIIEETKVEDEKSEMEETLTAIAEELAASAKEEKEEAEEKEEEPEAEKSPVKSPEAKEEEEEGEKEEEEEGQEEEEEEDEGVKSDQAEEGGSEKEGSSEKDEGEQEEEEGETEAEGEGEEAEAKEEKKIEGKVEEVAVKEEIKVEKPEKAKSPMPKSPVEEVKPKPEAKAGKGEQKEEEKVEEEKKEVTKESPKEEKVEKKEEKPKDVADKKKAESPVKEKAVEEVITISKSVKVSLEKDTKEEKPQPQEKVKEKAEEEGGSEEEGSDRSPQESKKEDIAINGEVEGKEEEEQETQEKGSGREEEKGVVTNGLDVSPAEEKKGEDSSDDKVVVTKKVEKITSEGGDGATKYITKSVTVTQKVEEHEETFEEKLVSTKKVEKVTSHAIVKEVTQGD
With B5, in assay [2], the binding result is reported as “binds”.
